Test results as given in publication PMC9684134, “In vitro biochemical assessment of mixture effects of two endocrine disruptors on INS-1 cells” (Scientific Reports, 2022).

Tested on: INS-1 cells
Assay: Glucose-galactose cytotoxicity assay (MTT)
Protocol: Sub-culturing was in ratio 4:3. Cell density was 15,000 cells/well and treated with 200 µL of the test solution that was solubilized in glucose-free RPMI medium supplemented with 5 mM glucose or 5 mM galactose. The cells were incubated further for 48 h. The spent medium was replaced with 100 µL glucose in RPMI medium. 2,4-dinitrophenol served as positive control. The cells were finally loaded with MTT as in section “Cell viability assay” but incubation took 120 min.

[1] = ratio greater than 1 indicative of potential mitochondrial toxicity

SMILES | Glu- IC50/Gal- IC50 (fold value) [1] | Glu- IC50/Gal- IC50 (fold value) (ratio greater than 1 indicative of potential mitochondrial toxicity, listed as 4-tOP) | Glu- IC50/Gal- IC50 (fold value)
O=[N+]([O-])c1ccc(O)c([N+](=O)[O-])c1 [2,4-Dinitrophenol, 2,4-dinitrophenol, reference compound] | 1.88 |  | 
CC(C)(C)CC(C)(C)c1ccc(O)cc1 [4-tert-Octylphenol] | 0.97 | less than 1 | 
Oc1cc(Cl)ccc1Oc1ccc(Cl)cc1Cl [Triclosan] |  |  | 1.42

Where two headings read alike, the source gives them in different places.
